# These are yes or no findings as the source states them, for the method shown. Binding seen in cells or lysates may run through a third protein. Some entries that bind do so weakly or less than the wild type. Sequences can lack the tags named with a protein.
# B1: Myc-NOD1, Q9Y239 1-953 (protein, not shown: small tags and cut ends)
# chain: MEEQGHSEMEIIPSESHPHIQLLKSNRELLVTHIRNTQCLVDNLLKNDYFSAEDAEIVCACPTQPDKVRKILDLVQSKGEEVSEFFLYLLQQLADAYVDLRPWLLEIGFSPSLLTQSKVVVNTDPVSRYTQQLRHHLGRDSKFVLCYAQKEELLLEEIYMDTIMELVGFSNESLGSLNSLACLLDHTTGILNEQGETIFILGDAGVGKSMLLQRLQSLWATGRLDAGVKFFFHFRCRMFSCFKESDRLCLQDLLFKHYCYPERDPEEVFAFLLRFPHVALFTFDGLDELHSDLDLSRVPDSSCPWEPAHPLVLLANLLSGKLLKGASKLLTARTGIEVPRQFLRKKVLLRGFSPSHLRAYARRMFPERALQDRLLSQLEANPNLCSLCSVPLFCWIIFRCFQHFRAAFEGSPQLPDCTMTLTDVFLLVTEVHLNRMQPSSLVQRNTRSPVETLHAGRDTLCSLGQVAHRGMEKSLFVFTQEEVQASGLQERDMQLGFLRALPELGPGGDQQSYEFFHLTLQAFFTAFFLVLDDRVGTQELLRFFQEWMPPAGAATTSCYPPFLPFQCLQGSGPAREDLFKNKDHFQFTNLFLCGLLSKAKQKLLRHLVPAAALRRKRKALWAHLFSSLRGYLKSLPRVQVESFNQVQAMPTFIWMLRCIYETQSQKVGQLAARGICANYLKLTYCNACSADCSALSFVLHHFPKRLALDLDNNNLNDYGVRELQPCFSRLTVLRLSVNQITDGGVKVLSEELTKYKIVTYLGLYNNQITDVGARYVTKILDECKGLTHLKLGKNKITSEGGKYLALAVKNSKSISEVGMWGNQVGDEGAKAFAEALRNHPSLTTLSLASNGISTEGGKSLARALQQNTSLEILWLTQNELNDEVAESLAEMLKVNQTLKHLWLIQNQITAKGTAQLADALQSNTGITEICLNGNLIKPEEAKVYEDEKRIICF
# Target: T1, FLAG-caspase 9, P55211
# T1 chain: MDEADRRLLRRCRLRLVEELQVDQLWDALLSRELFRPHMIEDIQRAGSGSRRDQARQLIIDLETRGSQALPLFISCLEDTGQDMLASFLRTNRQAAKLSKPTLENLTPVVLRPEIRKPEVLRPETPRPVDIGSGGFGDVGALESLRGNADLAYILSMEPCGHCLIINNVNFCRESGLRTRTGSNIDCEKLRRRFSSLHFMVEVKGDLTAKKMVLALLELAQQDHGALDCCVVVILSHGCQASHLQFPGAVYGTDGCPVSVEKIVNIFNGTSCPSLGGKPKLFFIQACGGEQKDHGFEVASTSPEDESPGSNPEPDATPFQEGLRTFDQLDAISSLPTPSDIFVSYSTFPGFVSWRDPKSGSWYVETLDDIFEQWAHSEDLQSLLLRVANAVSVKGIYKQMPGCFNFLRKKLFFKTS
# Assay: co-immunoprecipitation from co-transfected 293 cells: IP with anti-FLAG antibody, immunoblot with polyclonal anti-Myc antibody
# Conditions: remark: other sources report otherwise
binder,measurement,value
B1,binding,binds

# Source: patent US20060194740A1, “NOD1 as an anti-tumor agent” (priority 2005, published 2006)
